These are yes or no findings as the source states them, for the method shown. Binding seen in cells or lysates may run through a third protein. Some results given as binding are weak or reduced against the parent protein; the word gives no strength. For part of these data: Where a sequence is shown, tags or fusion partners need not be part of it.
Key:
[1] = molecular target: TrkB (endogenous, rat hippocampus) (rat (endogenous in hippocampus)) (UniProt Q63604); assay: co-IP; endogenous proteins from rat hippocampal extract (150 mM NaCl, 50 mM TRIS, 0.5% DOC, 1% Triton X-100); goat anti-TrkB or rabbit anti-SIPA1L2 overnight at 4 °C, Protein G Dynabeads; IgG controls
[2] = molecular target: T1, GFP-Snapin (UniProt P60192); assay: co-IP; heterologous, HEK293T lysate in RIPA buffer (50 mM Tris-HCl pH 7.4, 150 mM NaCl, 1% Triton X-100, 0.5% sodium deoxycholate, 0.1% SDS); anti-GFP/myc magnetic beads (MultiMACS)
T1 sequence: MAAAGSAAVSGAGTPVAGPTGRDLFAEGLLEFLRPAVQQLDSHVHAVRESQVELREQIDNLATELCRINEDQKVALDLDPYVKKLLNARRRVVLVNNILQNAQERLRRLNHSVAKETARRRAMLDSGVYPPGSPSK

Sequences of proteins named here, by UniProt entry; tags and fusion partners are left off. A change or cut given only in a name is not applied to a line headed by its entry. Residues count along the entry.
UniProt Q63604, residues 32-821: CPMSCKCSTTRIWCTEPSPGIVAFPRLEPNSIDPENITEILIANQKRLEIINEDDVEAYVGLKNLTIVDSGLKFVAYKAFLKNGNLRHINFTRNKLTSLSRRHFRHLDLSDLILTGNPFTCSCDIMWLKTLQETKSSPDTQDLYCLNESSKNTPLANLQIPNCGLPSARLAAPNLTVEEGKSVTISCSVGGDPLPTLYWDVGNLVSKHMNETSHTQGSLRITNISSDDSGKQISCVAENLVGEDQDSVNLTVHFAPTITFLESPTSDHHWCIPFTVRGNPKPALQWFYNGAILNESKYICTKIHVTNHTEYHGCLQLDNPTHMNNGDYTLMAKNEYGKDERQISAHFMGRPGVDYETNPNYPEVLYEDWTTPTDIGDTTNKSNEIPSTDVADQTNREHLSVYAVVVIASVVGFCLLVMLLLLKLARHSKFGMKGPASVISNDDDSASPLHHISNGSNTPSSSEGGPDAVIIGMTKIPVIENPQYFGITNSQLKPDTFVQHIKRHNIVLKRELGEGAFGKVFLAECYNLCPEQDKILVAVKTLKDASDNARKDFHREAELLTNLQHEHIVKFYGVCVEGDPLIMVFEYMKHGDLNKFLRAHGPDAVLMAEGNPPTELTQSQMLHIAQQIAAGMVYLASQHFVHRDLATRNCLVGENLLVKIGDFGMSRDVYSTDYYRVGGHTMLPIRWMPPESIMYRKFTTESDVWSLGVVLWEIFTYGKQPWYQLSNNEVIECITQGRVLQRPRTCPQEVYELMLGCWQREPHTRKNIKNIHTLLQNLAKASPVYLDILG
UniProt Q5JCS6: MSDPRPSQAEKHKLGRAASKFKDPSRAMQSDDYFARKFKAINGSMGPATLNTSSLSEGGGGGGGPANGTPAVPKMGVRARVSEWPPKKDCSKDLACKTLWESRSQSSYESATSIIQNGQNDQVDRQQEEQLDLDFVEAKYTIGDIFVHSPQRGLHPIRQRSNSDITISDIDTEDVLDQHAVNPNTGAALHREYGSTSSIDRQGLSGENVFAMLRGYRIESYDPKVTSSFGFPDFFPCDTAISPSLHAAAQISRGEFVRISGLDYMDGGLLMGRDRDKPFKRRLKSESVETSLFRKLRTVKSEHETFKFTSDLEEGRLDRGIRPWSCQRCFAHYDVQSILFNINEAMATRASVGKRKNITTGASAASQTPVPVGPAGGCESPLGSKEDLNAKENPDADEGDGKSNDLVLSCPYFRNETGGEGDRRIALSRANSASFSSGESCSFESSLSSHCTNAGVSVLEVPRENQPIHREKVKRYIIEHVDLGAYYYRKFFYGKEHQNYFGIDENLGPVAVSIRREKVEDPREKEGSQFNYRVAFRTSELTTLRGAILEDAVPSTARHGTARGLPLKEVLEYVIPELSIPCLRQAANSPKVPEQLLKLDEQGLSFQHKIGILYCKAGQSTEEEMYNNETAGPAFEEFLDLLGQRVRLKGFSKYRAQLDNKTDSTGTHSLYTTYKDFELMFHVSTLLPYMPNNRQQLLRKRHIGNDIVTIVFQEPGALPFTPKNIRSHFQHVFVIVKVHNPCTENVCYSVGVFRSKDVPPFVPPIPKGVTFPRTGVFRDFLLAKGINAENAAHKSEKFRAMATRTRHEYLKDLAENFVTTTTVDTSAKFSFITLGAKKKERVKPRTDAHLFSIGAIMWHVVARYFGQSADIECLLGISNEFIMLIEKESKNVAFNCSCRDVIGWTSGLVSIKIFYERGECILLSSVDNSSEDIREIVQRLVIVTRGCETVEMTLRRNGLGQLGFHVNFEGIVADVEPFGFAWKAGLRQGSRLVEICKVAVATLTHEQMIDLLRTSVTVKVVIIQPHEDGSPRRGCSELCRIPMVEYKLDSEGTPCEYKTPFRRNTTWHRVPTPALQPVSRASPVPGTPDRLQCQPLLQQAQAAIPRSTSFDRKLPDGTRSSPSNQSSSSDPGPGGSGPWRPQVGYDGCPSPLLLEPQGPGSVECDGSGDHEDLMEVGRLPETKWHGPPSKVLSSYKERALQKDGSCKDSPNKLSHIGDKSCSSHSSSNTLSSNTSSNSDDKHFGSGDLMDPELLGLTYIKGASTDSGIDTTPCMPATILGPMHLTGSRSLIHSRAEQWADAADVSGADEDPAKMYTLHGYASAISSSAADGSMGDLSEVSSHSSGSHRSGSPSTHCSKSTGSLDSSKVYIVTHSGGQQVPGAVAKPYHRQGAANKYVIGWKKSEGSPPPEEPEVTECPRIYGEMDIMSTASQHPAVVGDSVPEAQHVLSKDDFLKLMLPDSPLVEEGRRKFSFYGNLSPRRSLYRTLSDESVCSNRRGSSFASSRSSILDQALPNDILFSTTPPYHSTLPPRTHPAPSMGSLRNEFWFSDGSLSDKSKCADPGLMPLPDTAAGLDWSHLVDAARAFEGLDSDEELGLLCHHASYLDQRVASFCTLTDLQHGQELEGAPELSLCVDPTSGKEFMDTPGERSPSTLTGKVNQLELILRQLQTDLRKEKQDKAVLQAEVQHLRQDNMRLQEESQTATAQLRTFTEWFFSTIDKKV

binding [1]	binding [2]	Substance
binds	–	SIPA1L2 (endogenous, rat hippocampus) (from UniProt Q5JCS6 1-1722)
–	binds	SIPA1L2-F638A-L641A-mCherry (from UniProt Q5JCS6 1-1722)
–	binds	fl-SIPA1L2-mCherry (from UniProt Q5JCS6 1-1722)

Source: PMC6884526
